From the supplement of paper PMC8166895
Where a name gives a salt, the structure may show the parent alone. This is one part of the list. Most values lie at the level of the controls, where differences are scatter.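 Melting temperature was read by differential scanning fluorimetry in a single-replicate pilot screen of a library of approved drugs and clinical or known-target compounds. Compounds raising the melting point by at least 2 °C were the top stabilizing hits, and negative shifts mean destabilization.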

What follows are compounds tested on SARS-CoV-2 main protease (Mpro, nsp5) (assay: thermal shift ΔTm of Mpro relative to plate average Tm; higher = stronger thermal stabilization of Mpro (binding)). Conditions: 10 µM; protein concentration 1 µM.
With `CCOCCn1c(N2CCCN(C)CC2)nc2ccccc21` [Emedastine] the “thermal shift ΔTm of Mpro” value was 0.0508 °C.
With `CC[C@H](C)C(=O)O[C@H]1C[C@H](O)C=C2C=C[C@H](C)[C@H](CC[C@@H](O)C[C@@H](O)CC(=O)O)[C@H]21` [Pravastatin sodium] the “thermal shift ΔTm of Mpro” value was 0.0146 °C.
`Cc1cccn2c(=O)c(-c3nnn[nH]3)cnc12` [Pemirolast potassium] was tested, and the “thermal shift ΔTm of Mpro” value was 0.124 °C.
For `CC1=C(C(=O)O)N2C(=O)[C@@H](NC(=O)[C@H](N)c3ccccc3)[C@H]2SC1` [Cephalexin], the “thermal shift ΔTm of Mpro” value was -0.0266 °C.
With `Cc1nccn1CC1CCc2c(c3ccccc3n2C)C1=O` (stereo not drawn) [Ondansetron hydrochloride] the “thermal shift ΔTm of Mpro” value was -0.042 °C.
With `Cc1nccn1CC1CCc2c(c3ccccc3n2C)C1=O` (stereo not drawn) [Ondansetron HCl] the “thermal shift ΔTm of Mpro” value was 0.0935 °C.
With `CC(=O)NC[C@H]1CN(c2ccc(N3CCOCC3)c(F)c2)C(=O)O1` [Linezolid] the “thermal shift ΔTm of Mpro” value was 0.198 °C.
`CC(C)Cc1ccc([C@@H](C)C(=O)NS(C)(=O)=O)cc1` [Repertaxin] was tested, and the “thermal shift ΔTm of Mpro” value was -0.000229 °C.
With `COc1ccc2c(c1)c(CC(=O)OCC(=O)O)c(C)n2C(=O)c1ccc(Cl)cc1` [Acemetacin] the “thermal shift ΔTm of Mpro” value was -0.0651 °C.
In the case of `COc1cc2c(cc1Cc1cccc(Cl)c1F)c(=O)c(C(=O)O)cn2[C@H](CO)C(C)C` [Elvitegravir (GS-9137, JTK-303)], the “thermal shift ΔTm of Mpro” value is reported as 0.128 °C.
For `COc1ccc2cc3[n+](cc2c1OC)CCc1cc2c(cc1-3)OCO2` [Berberine HCl], the “thermal shift ΔTm of Mpro” value was 0.00619 °C.
In the case of `OCC(S)CS` (stereo not drawn) [Dithiopropanol], the “thermal shift ΔTm of Mpro” value is reported as 0.0319 °C.
For `CCC(C)NC(=O)/C=C/c1ccc(Cl)c(Cl)c1` (stereo not drawn) [Lvguidingan], the “thermal shift ΔTm of Mpro” value was 0.0285 °C.
In the case of `Cn1sc(=O)n(Cc2ccccc2)c1=O`, the “thermal shift ΔTm of Mpro” value is reported as -12.9 °C.
In the case of `O=C(CCCN1CCC2(CC1)C(=O)NCN2c1ccccc1)c1ccc(F)cc1` [Spiperone], the “thermal shift ΔTm of Mpro” value is reported as 0.0877 °C.
`O=C1Nc2ccc(I)cc2/C1=C/c1cc(Br)c(O)c(Br)c1` was tested, and the “thermal shift ΔTm of Mpro” value was 1.7 °C.
With `COc1ccc(OC)c(C2C(C#N)=C(N)Oc3n[nH]c(-c4ccc5ccccc5c4)c32)c1` (stereo not drawn) the “thermal shift ΔTm of Mpro” value was -0.123 °C.
In the case of `O=C1N=C(O)NC1(c1ccccc1)c1ccccc1` [Phenytoin sodium], the “thermal shift ΔTm of Mpro” value is reported as 0.0409 °C.
In the case of `CC1(C)O[C@@H]2[C@@H](CO[C@@]3(COS(N)(=O)=O)OC(C)(C)O[C@@H]23)O1` [Topiramate], the “thermal shift ΔTm of Mpro” value is reported as 0.14 °C.
For `CC[N+](CC)(CC(=O)Nc1c(C)cccc1C)Cc1ccccc1` [Denatonium benzoate], the “thermal shift ΔTm of Mpro” value was 0.236 °C.
With `COc1cc(NS(=O)(=O)c2ccc(N)cc2)nc(OC)n1` [Sulphadimethoxine] the “thermal shift ΔTm of Mpro” value was 0.136 °C.
For `c1ccc(CN(CCN(Cc2ccccn2)Cc2ccccn2)Cc2ccccn2)nc1`, the “thermal shift ΔTm of Mpro” value was -0.0795 °C.
For `CCNc1nc(Nc2cc(F)c(C(=O)N3CCOCC3)cc2OC)ncc1C(F)(F)F`, the “thermal shift ΔTm of Mpro” value was -0.223 °C.
